Data: article doi:10.1101/2021.02.20.432055
Results are given in words; binding and its absence hold for the method and conditions named. In cells and extracts the contact can be indirect. Here binding means that the protein was enriched with, or labelled near, the bait; the list need not be complete. Sequences can lack the tags named with a protein. Blank lines part the entries; values can stand above or below the molecule they belong to.

Chains of the proteins cited; added tags and fusions are not shown.
UniProt Q92616: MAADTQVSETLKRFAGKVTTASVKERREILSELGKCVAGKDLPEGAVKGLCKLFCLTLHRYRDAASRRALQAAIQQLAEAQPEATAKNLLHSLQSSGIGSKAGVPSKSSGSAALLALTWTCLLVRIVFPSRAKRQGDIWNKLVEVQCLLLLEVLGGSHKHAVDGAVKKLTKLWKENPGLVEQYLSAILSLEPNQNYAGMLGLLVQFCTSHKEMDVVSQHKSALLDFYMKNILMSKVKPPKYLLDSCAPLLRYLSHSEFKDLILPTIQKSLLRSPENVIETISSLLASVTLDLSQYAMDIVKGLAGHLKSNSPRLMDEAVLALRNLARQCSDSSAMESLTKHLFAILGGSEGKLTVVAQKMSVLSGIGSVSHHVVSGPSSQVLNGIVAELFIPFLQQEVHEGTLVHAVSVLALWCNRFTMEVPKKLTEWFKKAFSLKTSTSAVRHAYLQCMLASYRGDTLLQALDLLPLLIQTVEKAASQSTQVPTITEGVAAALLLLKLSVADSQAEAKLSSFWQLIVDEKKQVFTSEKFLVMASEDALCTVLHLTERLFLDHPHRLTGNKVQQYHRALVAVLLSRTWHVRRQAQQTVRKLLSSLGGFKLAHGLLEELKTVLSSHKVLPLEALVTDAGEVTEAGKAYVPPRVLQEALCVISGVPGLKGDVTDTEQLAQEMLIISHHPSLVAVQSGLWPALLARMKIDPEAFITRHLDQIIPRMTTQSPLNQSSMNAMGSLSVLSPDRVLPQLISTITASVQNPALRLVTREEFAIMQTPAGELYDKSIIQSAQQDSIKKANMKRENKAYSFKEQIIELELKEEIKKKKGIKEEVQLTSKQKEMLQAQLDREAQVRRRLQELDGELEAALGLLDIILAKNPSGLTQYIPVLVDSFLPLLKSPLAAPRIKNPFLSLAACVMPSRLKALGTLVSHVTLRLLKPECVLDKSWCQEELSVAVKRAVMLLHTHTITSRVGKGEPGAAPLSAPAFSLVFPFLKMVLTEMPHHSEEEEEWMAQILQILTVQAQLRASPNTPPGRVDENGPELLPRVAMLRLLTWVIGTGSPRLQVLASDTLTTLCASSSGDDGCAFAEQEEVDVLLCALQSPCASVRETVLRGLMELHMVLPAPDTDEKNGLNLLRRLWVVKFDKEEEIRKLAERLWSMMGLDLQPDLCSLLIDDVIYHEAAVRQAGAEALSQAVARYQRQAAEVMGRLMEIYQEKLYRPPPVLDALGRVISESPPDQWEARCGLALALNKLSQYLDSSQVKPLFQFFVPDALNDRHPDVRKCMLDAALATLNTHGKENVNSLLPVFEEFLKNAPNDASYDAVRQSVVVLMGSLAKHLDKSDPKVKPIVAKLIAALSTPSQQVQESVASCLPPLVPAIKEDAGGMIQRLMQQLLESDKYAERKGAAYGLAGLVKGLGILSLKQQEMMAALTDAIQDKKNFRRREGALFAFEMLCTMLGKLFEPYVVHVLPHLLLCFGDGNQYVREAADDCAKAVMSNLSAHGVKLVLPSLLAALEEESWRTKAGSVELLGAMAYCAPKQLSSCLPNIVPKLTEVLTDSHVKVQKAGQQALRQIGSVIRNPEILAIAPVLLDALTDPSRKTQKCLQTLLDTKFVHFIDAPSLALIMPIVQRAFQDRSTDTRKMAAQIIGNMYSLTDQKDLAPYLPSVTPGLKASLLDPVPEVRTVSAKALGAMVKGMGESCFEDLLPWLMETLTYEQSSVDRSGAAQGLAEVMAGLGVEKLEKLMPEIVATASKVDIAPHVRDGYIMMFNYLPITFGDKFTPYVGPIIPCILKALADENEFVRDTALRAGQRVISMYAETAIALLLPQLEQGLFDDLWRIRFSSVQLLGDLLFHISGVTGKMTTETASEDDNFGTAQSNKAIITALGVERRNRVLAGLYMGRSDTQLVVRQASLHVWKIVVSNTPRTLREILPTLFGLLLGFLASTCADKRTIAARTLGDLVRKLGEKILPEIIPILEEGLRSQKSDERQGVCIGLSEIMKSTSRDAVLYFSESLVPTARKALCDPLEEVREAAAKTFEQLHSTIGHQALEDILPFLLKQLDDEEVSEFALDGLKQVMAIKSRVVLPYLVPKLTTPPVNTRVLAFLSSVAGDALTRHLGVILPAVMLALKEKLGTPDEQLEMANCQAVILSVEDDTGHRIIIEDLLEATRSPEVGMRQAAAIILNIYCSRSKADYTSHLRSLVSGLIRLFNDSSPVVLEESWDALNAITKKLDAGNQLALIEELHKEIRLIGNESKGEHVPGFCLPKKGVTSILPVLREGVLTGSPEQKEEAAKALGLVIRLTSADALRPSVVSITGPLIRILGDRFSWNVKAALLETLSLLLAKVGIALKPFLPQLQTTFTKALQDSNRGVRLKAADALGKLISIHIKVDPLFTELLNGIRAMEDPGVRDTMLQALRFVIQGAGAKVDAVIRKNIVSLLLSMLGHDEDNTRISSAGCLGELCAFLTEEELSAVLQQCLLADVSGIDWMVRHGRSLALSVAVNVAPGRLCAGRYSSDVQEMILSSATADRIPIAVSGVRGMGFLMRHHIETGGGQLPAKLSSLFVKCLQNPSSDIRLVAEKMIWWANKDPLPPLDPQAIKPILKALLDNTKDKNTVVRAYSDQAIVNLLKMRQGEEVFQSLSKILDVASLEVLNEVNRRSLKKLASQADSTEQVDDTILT
UniProt Q92833: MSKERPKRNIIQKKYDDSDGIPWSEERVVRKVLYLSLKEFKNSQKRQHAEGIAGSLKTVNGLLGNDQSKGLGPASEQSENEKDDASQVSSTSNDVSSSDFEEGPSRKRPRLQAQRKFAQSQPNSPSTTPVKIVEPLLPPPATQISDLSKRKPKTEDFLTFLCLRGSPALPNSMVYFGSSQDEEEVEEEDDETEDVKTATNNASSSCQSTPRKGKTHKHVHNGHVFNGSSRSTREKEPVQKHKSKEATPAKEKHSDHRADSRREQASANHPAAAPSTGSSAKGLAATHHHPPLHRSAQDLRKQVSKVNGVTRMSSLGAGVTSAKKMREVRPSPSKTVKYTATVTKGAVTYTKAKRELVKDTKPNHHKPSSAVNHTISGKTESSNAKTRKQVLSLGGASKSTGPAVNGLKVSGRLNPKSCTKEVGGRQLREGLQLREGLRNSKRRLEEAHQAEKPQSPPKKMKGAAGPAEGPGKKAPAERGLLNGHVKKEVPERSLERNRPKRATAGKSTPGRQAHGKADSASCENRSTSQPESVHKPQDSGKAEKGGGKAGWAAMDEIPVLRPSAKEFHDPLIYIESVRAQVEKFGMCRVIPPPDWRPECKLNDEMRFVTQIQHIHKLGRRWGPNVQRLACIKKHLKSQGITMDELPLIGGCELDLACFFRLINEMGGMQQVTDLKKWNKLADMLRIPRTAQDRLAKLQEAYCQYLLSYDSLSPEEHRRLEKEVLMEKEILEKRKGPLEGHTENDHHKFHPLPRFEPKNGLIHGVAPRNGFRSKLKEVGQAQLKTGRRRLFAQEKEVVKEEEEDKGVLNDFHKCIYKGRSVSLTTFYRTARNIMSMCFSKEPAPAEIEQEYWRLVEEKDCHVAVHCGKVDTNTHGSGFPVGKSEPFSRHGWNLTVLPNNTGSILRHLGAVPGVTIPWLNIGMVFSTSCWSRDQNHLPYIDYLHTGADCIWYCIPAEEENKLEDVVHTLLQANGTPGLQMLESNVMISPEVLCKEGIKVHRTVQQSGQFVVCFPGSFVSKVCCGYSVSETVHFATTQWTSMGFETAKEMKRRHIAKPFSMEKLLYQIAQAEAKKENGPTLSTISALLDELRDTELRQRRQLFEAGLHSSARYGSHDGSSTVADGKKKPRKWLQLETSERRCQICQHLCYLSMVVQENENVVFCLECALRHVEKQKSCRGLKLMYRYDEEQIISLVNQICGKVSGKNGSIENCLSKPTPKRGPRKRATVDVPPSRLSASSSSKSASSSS
UniProt P18583: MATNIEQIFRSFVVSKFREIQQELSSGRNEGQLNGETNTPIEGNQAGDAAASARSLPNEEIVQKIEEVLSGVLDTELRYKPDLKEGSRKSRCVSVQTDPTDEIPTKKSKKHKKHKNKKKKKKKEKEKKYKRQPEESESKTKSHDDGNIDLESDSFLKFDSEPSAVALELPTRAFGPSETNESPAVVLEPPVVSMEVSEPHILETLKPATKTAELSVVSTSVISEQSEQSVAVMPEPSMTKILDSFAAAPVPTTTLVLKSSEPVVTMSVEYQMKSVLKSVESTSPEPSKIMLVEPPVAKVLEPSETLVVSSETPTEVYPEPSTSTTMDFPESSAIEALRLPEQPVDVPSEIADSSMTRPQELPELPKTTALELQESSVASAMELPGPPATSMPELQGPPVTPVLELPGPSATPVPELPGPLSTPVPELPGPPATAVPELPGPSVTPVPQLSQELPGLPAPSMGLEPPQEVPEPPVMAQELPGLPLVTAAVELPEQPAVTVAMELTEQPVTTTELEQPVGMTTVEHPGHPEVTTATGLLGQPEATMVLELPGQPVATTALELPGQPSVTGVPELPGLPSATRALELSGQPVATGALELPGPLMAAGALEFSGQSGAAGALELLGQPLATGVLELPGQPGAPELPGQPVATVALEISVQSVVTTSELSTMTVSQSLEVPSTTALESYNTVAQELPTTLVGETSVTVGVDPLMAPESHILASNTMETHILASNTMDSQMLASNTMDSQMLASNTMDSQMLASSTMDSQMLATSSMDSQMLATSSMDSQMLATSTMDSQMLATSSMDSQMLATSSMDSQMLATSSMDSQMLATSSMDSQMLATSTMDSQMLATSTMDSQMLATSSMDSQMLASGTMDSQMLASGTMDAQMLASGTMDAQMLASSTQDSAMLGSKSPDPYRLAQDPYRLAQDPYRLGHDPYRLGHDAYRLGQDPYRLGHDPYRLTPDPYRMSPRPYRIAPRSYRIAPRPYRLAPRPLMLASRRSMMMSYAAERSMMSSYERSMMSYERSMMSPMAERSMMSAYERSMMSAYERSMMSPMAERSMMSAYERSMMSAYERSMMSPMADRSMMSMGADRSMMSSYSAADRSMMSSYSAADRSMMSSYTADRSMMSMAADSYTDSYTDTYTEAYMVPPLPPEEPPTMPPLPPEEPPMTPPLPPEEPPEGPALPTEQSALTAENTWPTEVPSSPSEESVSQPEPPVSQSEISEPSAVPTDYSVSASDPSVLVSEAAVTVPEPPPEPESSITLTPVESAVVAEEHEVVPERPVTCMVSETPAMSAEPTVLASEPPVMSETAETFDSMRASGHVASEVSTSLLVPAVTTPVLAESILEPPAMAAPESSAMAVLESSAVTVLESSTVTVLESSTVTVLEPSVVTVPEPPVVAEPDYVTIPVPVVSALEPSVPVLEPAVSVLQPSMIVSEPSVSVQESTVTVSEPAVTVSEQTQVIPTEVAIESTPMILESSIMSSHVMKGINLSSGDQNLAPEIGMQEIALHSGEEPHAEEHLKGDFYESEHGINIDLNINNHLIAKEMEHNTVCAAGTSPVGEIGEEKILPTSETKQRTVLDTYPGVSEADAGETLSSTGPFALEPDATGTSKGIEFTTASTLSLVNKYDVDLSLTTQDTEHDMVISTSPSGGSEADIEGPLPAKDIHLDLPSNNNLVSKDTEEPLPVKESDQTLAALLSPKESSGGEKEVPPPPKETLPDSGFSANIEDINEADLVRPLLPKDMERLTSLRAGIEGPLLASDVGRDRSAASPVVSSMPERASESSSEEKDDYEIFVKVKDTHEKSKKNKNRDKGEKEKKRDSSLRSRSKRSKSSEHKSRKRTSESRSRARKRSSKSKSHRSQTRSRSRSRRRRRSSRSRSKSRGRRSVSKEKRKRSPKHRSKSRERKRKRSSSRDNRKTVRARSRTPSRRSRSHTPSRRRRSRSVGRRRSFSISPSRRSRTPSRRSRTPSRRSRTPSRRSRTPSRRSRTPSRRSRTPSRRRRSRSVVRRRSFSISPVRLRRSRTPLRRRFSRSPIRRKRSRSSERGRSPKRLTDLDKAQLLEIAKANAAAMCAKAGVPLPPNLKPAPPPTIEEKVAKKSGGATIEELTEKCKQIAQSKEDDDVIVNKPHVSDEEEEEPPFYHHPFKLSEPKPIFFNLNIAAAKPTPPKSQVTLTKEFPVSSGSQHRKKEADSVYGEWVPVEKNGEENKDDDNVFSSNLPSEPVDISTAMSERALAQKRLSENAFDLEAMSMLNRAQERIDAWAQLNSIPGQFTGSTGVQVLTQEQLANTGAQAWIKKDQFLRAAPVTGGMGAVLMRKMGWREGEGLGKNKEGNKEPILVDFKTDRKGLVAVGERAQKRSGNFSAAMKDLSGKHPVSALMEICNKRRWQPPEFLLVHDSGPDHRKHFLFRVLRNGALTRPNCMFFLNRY
UniProt Q07955: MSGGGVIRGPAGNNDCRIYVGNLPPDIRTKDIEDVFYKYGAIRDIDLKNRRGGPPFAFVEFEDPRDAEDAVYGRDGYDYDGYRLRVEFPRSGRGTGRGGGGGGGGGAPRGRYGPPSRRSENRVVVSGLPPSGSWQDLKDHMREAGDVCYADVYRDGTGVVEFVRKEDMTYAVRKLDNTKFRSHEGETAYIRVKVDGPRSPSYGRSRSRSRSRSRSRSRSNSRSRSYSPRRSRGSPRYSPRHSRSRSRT

Target: T1, SA1 (Stromalin Antigen 1, STAG1) (human (endogenous in HCT116)) (UniProt Q8WVM7)
T1 sequence: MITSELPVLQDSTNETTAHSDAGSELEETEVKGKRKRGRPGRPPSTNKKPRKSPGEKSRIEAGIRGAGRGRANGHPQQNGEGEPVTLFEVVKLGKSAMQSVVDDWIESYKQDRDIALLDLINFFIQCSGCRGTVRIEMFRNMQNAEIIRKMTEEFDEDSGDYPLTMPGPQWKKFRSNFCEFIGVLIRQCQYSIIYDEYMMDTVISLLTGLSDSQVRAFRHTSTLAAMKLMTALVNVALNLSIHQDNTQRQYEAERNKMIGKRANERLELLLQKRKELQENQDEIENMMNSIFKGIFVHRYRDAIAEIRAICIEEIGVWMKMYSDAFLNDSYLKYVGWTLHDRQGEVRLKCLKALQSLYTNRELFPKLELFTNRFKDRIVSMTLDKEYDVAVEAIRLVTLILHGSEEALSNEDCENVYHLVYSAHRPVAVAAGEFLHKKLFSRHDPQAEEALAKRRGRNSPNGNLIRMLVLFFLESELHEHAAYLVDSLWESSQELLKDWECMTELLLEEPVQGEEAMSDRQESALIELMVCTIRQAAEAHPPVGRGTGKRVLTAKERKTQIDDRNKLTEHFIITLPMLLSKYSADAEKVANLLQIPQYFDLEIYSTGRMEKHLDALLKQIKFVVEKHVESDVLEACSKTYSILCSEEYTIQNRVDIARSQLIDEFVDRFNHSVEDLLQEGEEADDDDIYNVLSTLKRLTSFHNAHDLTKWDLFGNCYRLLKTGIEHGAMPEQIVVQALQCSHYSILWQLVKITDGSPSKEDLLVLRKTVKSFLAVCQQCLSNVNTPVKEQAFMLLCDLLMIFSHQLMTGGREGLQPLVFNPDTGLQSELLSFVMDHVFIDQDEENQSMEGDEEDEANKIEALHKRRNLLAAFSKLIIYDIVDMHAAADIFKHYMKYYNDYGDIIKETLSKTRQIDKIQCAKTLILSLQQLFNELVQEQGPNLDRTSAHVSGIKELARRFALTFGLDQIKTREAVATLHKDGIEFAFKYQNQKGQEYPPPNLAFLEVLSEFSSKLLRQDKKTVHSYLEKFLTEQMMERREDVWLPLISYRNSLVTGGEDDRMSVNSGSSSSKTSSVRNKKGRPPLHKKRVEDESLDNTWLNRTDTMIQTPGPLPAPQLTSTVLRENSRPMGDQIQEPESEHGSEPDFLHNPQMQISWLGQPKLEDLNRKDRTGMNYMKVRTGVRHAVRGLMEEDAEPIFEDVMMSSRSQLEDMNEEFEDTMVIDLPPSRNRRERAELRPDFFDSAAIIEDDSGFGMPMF
Test: affinity purification with mass spectrometry

binding: binds
Molecule: GCN1L1 (from UniProt Q92616 1-2671)

binding: binds
Molecule: JARID2 (from UniProt Q92833 1-1246)

binding: binds
Molecule: SMC3 (from UniProt Q9UQE7 1-1217)

binding: binds
Molecule: SON (from UniProt P18583 1-2426)

binding: binds
Molecule: SRSF1 (from UniProt Q07955 1-248)

binding: binds
Molecule: SYNCRIP (from UniProt O60506 1-623)

binding: binds
B1: SMC1A (protein, UniProt Q14683 1-1233)
chain: MGFLKLIEIENFKSYKGRQIIGPFQRFTAIIGPNGSGKSNLMDAISFVLGEKTSNLRVKTLRDLIHGAPVGKPAANRAFVSMVYSEEGAEDRTFARVIVGGSSEYKINNKVVQLHEYSEELEKLGILIKARNFLVFQGAVESIAMKNPKERTALFEEISRSGELAQEYDKRKKEMVKAEEDTQFNYHRKKNIAAERKEAKQEKEEADRYQRLKDEVVRAQVQLQLFKLYHNEVEIEKLNKELASKNKEIEKDKKRMDKVEDELKEKKKELGKMMREQQQIEKEIKEKDSELNQKRPQYIKAKENTSHKIKKLEAAKKSLQNAQKHYKKRKGDMDELEKEMLSVEKARQEFEERMEEESQSQGRDLTLEENQVKKYHRLKEEASKRAATLAQELEKFNRDQKADQDRLDLEERKKVETEAKIKQKLREIEENQKRIEKLEEYITTSKQSLEEQKKLEGELTEEVEMAKRRIDEINKELNQVMEQLGDARIDRQESSRQQRKAEIMESIKRLYPGSVYGRLIDLCQPTQKKYQIAVTKVLGKNMDAIIVDSEKTGRDCIQYIKEQRGEPETFLPLDYLEVKPTDEKLRELKGAKLVIDVIRYEPPHIKKALQYACGNALVCDNVEDARRIAFGGHQRHKTVALDGTLFQKSGVISGGASDLKAKARRWDEKAVDKLKEKKERLTEELKEQMKAKRKEAELRQVQSQAHGLQMRLKYSQSDLEQTKTRHLALNLQEKSKLESELANFGPRINDIKRIIQSREREMKDLKEKMNQVEDEVFEEFCREIGVRNIREFEEEKVKRQNEIAKKRLEFENQKTRLGIQLDFEKNQLKEDQDKVHMWEQTVKKDENEIEKLKKEEQRHMKIIDETMAQLQDLKNQHLAKKSEVNDKNHEMEEIRKKLGGANKEMTHLQKEVTAIETKLEQKRSDRHNLLQACKMQDIKLPLSKGTMDDISQEEGSSQGEDSVSGSQRISSIYAREALIEIDYGDLCEDLKDAQAEEEIKQEMNTLQQKLNEQQSVLQRIAAPNMKAMEKLESVRDKFQETSDEFEAARKRAKKAKQAFEQIKKERFDRFNACFESVATNIDEIYKALSRNSSAQAFLGPENPEEPYLDGINYNCVAPGKRFRPMDNLSGGEKTVAALALLFAIHSYKPAPFFVLDEIDAALDNTNIGKVANYIKEQSTCNFQAIVISLKEEFYTKAESLIGVYPEQGDCVISKVLTFDLTKYPDANPNPNEQ
